From PubChem BioAssay AID1332 (Southern Research Institute, 2008) come the findings set out here.

In brackets after ≈: the same amount, converted by molar mass. This is one part of the list. Shown are side measurements of this screen, not its main read-out; they come without a call. Positions of bridges follow the written chain, without caps; N, C: chain ends. Non-standard residues stand in square brackets, D forms with d. Residues, ends and D or L forms follow the SMILES beside them. *: point of attachment. X1 = CCC(C)C(N)C1=NC(C(=O)*)CS1; dOrn = NCCC[C@@H](N)C(=O)O

A short description of this assay: Mycobacterium tuberculosis H37Rv growth inhibition, confirmatory dose response, cytotoxicity (AID 1332).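 On CC50: Vero cells exposed to compounds for 72 hours.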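 On IC50: bacteria incubated 7 days before adding Alamar blue readout reagent.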 Particulars: M. tuberculosis H37Rv growth inhibition; CC50: measured here: Vero cell cytotoxicity; IC50: measured here: IC50 H37Rv replicates.
Broadly, the CC50 is the concentration at which the toxic effect on the cells reaches its halfway point. In general, IC50 refers to the concentration that gives 50% inhibition. `C[C@@H]1O[C@@H](O[C@@H]2C=C3CCC4C(CC[C@]5(C)[C@@H](c6ccc(=O)oc6)CC[C@]45O)[C@@]3(C)CC2)[C@H](O)[C@H](O)[C@H]1O` (stereo partly specified) yielded a CC50 of over 6 µg/mL and an IC50 of over 20 µg/mL.
In turn, `COc1cc(=O)n(C)c2c(OCC(O)C(C)(C)O)cccc12` (stereo unspecified) gave a half-maximal inhibitory concentration (IC50) of over 20 µg/mL.
Consider `CN(C)CCCC1(c2ccc(F)cc2)OCc2cc(C#N)ccc21` (stereo unspecified), for which the IC50 was over 20 µg/mL.
On the same count and under the same terms, for `O=C(O)CNC(=O)C(CS)Cc1ccccc1` (stereo unspecified) the value was over 20 µg/mL; for `CCC(C)C(N)C1=NC(C(=O)N[C@@H](CC(C)C)C(=O)N[C@H](CCC(=O)O)C(=O)N[C@H](C(=O)N[C@H]2CCCCNC(=O)[C@H](CC(N)=O)NC(=O)[C@@H](CC(=O)O)NC(=O)[C@H](Cc3cnc[nH]3)NC(=O)[C@@H](Cc3ccccc3)NC(=O)[C@H]([C@@H](C)CC)NC(=O)[C@@H](CCCN)NC2=O)[C@@H](C)CC)CS1` (stereo partly specified) (X1-L[dE]IK[dOrn]I[dF]H[dD]N; lactam 4-C), over 20 µg/mL; for `CC(C)(C)NCC(O)c1ccc(O)c(CO)c1` (stereo unspecified), over 20 µg/mL.
The molecule `CC[N+]1(C)CCCC(OC(=O)C(O)(c2ccccc2)c2ccccc2)C1` (stereo unspecified) displayed an IC50 of over 20 µg/mL.
Still for that read-out and setting: for `COc1ccc2c(c1OC)CN1CCc3cc4c(cc3C1C2)OCO4` (stereo unspecified) the value was over 20 µg/mL.
The same measure, in the same setting: the value for `O=C(NCC1CCCCN1)c1cc(OCC(F)(F)F)ccc1OCC(F)(F)F` (stereo unspecified) was over 20 µg/mL; that for `NC(N)=NCCN1CCCCCCC1` was over 20 µg/mL.
Take `CCN(CC)C(=O)N[C@H]1C[C@@H]2c3cccc4[nH]cc(c34)C[C@H]2N(C)C1`: the IC50 is over 20 µg/mL.
As for `O=C(c1ccc(OCCN2CCCCC2)cc1)c1c(-c2ccc(O)cc2)sc2cc(O)ccc12`, the CC50 is over 6 µg/mL and the IC50 was over 20 µg/mL.
`COc1cc2c(c(OC)c1OC)-c1ccc(OC)c(=O)cc1[C@@H](NC(C)=O)CC2` yielded a CC50 of 0.327 µg/mL (≈ 0.819 µM) and a half-maximal inhibitory concentration (IC50) of over 20 µg/mL.
The corresponding values for `CC(CN1c2ccccc2Sc2ccccc21)N(C)C` (stereo unspecified) are over 6 µg/mL and over 20 µg/mL.
For `NS(=O)(=O)c1cc2c(cc1C(F)(F)F)NC(Cc1ccccc1)NS2(=O)=O` (stereo unspecified), the IC50 is over 20 µg/mL.
Same read-out and setting: for `CCOC(=O)C1=C(C)NC(C)=C(C(=O)OC)C1c1cccc([N+](=O)[O-])c1` (stereo unspecified) the value was over 20 µg/mL; for `CCn1cc(C(=O)O)c(=O)c2cc(F)c(N3CCNCC3)cc21`, 0.686 µg/mL (≈ 2.15 µM).
On the same count and under the same terms, for `CC(C)(Oc1ccc(C2CC2(Cl)Cl)cc1)C(=O)O` (stereo unspecified) the value was over 20 µg/mL; for `C[C@@H](O)[C@H]1C(=O)N2C(C(=O)O)=C(SCCN=CN)C[C@H]12`, over 20 µg/mL; for `O=C(NCNC(=O)NC1C(=O)NC(=O)N1CO)NC1C(=O)NC(=O)N1CO` (stereo unspecified), over 20 µg/mL.
On to `CC(=O)O[C@H]1CC[C@@]2(C)C(=CC[C@@H]3[C@@H]2CC[C@]2(C)C(=O)CC[C@@H]32)C1`, for which the IC50 was over 20 µg/mL.
`CNC1(C)C2CCC(C2)C1(C)C` (stereo unspecified) had an IC50 of over 20 µg/mL.
The same measure, in the same setting: the value for `CN[C@@H]1[C@H](O[C@H]2[C@H](O[C@@H]3[C@@H](O)[C@H](O)[C@@H](N=C(N)N)[C@H](O)[C@H]3N=C(N)N)O[C@@H](C)[C@]2(O)C=O)O[C@@H](CO)[C@H](O)[C@H]1O` was 0.794 µg/mL (≈ 1.37 µM); that for `CCC(C)(CN(C)C)OC(=O)c1ccccc1` (stereo unspecified) was over 20 µg/mL; that for `Cn1c(=O)c2c(ncn2CC(O)CO)n(C)c1=O` (stereo unspecified) was over 20 µg/mL.
`CN1C[C@H](CNC(=O)OCc2ccccc2)C[C@@H]2c3cccc4c3c(cn4C)C[C@H]21` displayed a CC50 of over 6 µg/mL and an IC50 of 4.17 µg/mL (≈ 10.3 µM).
As to `Oc1ccc2c3c1O[C@H]1[C@@H](O)CC[C@@]4(O)[C@@H](C2)N(CC2CCC2)CC[C@]314`, the IC50 is over 20 µg/mL.
Same read-out and setting: the value for `CC[C@]12CCCN3CCc4c(n(c5ccccc45)[C@@](O)(C(=O)OC)C1)[C@@H]32` was over 20 µg/mL; that for `COC1=CC(=O)O[C@@H](/C=C/c2ccccc2)C1` was over 20 µg/mL.
On the same count and under the same terms, the value for `CC(CCc1ccc(O)cc1)NCCc1ccc(O)c(O)c1` (stereo unspecified) was over 20 µg/mL.
Still for that read-out and setting: for `CN1CCc2cc3c(cc2[C@H]1[C@@H]1OC(=O)c2c1ccc1c2OCO1)OCO3` the value was over 20 µg/mL.
As for `CCSc1ccc2c(c1)N(CCCN1CCN(C)CC1)c1ccccc1S2`, the CC50 is over 6 µg/mL and the IC50 worked out at 3.84 µg/mL (≈ 9.61 µM).
The molecule `CN(C)CCC(c1ccccc1)c1ccccn1` (stereo unspecified) gave an IC50 of over 20 µg/mL.
In the case of `C[C@]12CC[C@H](O)C[C@H]1CC[C@@H]1[C@@H]2CC[C@]2(C)[C@@H](C3=CC(=O)OC3)CC[C@]12O`, the CC50 was found to be 0.415 µg/mL (≈ 1.11 µM) and the IC50 is over 20 µg/mL.
In turn, `O=C(O)c1cc(=O)c2c(OCC(O)COc3cccc4oc(C(=O)O)cc(=O)c34)cccc2o1` came in with an IC50 of over 20 µg/mL.
On the same count and under the same terms, the value for `CC(C)c1cccc(C(C)C)c1O` was over 20 µg/mL.
`CC(=O)OC(C)C[N+](C)(C)C` (stereo unspecified) showed an IC50 of over 20 µg/mL.
`C=CCc1ccccc1OCC(O)CNC(C)C` (stereo unspecified) registered an IC50 of over 20 µg/mL.
Still for that read-out and setting: the value for `CCOC(=O)c1ccc(OC(=O)CCCCCN=C(N)N)cc1` was over 20 µg/mL.
`CCCC(C(=O)OCCN(CC)CC)(c1ccccc1)c1ccccc1` came in with a CC50 of over 6 µg/mL and an IC50 of over 20 µg/mL.
As to `C[C@H](CCC(=O)NCC(=O)O)[C@H]1CC[C@H]2[C@@H]3[C@H](O)C[C@@H]4C[C@H](O)CC[C@]4(C)[C@H]3C[C@H](O)[C@]12C`, the 50% inhibitory concentration (IC50) was over 20 µg/mL.
In turn, `Clc1ccc(COC(Cn2ccnc2)c2ccc(Cl)cc2Cl)cc1` (stereo unspecified) showed a CC50 of over 6 µg/mL and an IC50 of 1.66 µg/mL (≈ 4.34 µM).
On to `Clc1ccccc1C(c1ccccc1)(c1ccccc1)n1ccnc1`, for which the CC50 was over 6 µg/mL and the IC50 is 1.45 µg/mL (≈ 4.2 µM).
In the case of `CN(C)CCOC(c1ccccc1)c1ccccc1` (tested in a mixture with another compound), the IC50 was over 20 µg/mL.
`Cc1c(C)c2c(c(C)c1O)CC[C@@](C)(CCC[C@H](C)CCC[C@H](C)CCCC(C)C)O2` had an IC50 of over 20 µg/mL.
Turning to `CCN(CCCc1ccccc1)CCCc1ccccc1`, the IC50 is over 20 µg/mL.
